PubChem BioAssay AID1159578, Peter MacCallum Cancer Centre – 2015

- Purpose: 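Genome-wide hunt for genes controlling movement of lymphatic endothelial cells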 (primary screen)
- Cell system: human lymphatic endothelial cells
- Reagent: siRNA pool against human genes, 40 nM
- Duration: 48 h after transfection
- Measured: 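High-content imaging of dye-stained cells in a scratch assay measures filled wound area and nuclei per well; duplicate means given as ratio to mock and robust z-score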
- Scale: migration robust z-score: higher = faster migration into the scratch; migration relative to mock: higher = more scratch area covered than mock; nuclei per well: higher = more cells in the well
- Hit rule: 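Migration changed when robust z exceeds 2 or falls below -2 and mean nuclei number is at least 3300; otherwise not called changed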
- Meaning of the calls: active = migration changed; inactive = no migration change, or too few cells
This is one part, drawn at random, of about 18,000 deposited reagents. About 1,030 of them (5.7%) were called active. 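Inactive calls also include pools with fewer than 3300 nuclei, whose migration was not assessed.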 The raw values are shown without normalisation. Entries without a mark were called inactive.

| gene | migration robust z-score | migration class with cell-count check | migration relative to mock | nuclei per well, duplicate mean |
| --- | --- | --- | --- | --- |
| OR2M4 | 0.84 | migration z between -2 and 2; enough cells | 1.1 | 5500 |
| BHMT | 0.68 | migration z between -2 and 2; enough cells | 0.94 | 5452 |
| PSMC3 | -2.1 (active) | migration z below -2; enough cells | 0.4 | 4844 |
| TAGLN2 | 0.84 | migration z between -2 and 2; enough cells | 1.1 | 5340 |
| LDLR | -1.64 | migration z between -2 and 2; enough cells | 0.49 | 5401 |
| COL6A5 | 0.62 | migration z between -2 and 2; enough cells | 1.04 | 5795 |
| TUFM | 0.26 | migration z between -2 and 2; enough cells | 0.86 | 5047 |
| PCNX4 | -0.82 | migration z between -2 and 2; enough cells | 0.67 | 6878 |
| ACTC1 | -0.24 | migration z between -2 and 2; enough cells | 0.82 | 5848 |
| KRTAP5-5 | 0.1 | migration z between -2 and 2; enough cells | 0.91 | 5124 |
| ZNF155 | 0.44 | migration z between -2 and 2; enough cells | 1 | 6482 |
| SLC51A | -0.01 | migration z between -2 and 2; enough cells | 0.88 | 4994 |
| LONRF3 | 1.04 | migration z between -2 and 2; enough cells | 1 | 6950 |
| CNOT1 | -4.85 | under 3300 nuclei; migration not judged | -0.38 | 2414 |
| SLC49A4 | 2.03 (active) | migration z above 2; enough cells | 1.42 | 7014 |
| VIPR2 | 0.08 | migration z between -2 and 2; enough cells | 0.82 | 5482 |
| GNRHR | 0.46 | migration z between -2 and 2; enough cells | 0.9 | 6788 |
| NUP133 | 1.22 | migration z between -2 and 2; enough cells | 1.2 | 5941 |
| PINX1 | 0.36 | migration z between -2 and 2; enough cells | 0.98 | 5708 |
| UTP3 | 0.06 | migration z between -2 and 2; enough cells | 0.9 | 5523 |
| KRTAP5-1 | -1.4 | migration z between -2 and 2; enough cells | 0.52 | 3634 |
| ADORA2B | 0.78 | migration z between -2 and 2; enough cells | 0.96 | 6371 |
| PTPN5 | 0.83 | migration z between -2 and 2; enough cells | 0.96 | 6114 |
| GGT6 | -0.91 | migration z between -2 and 2; enough cells | 0.63 | 5014 |
| BBS12 | 0.7 | migration z between -2 and 2; enough cells | 1.07 | 5298 |
| CRCP | 1.64 | migration z between -2 and 2; enough cells | 1.31 | 6182 |
| IL22 | -1.63 | migration z between -2 and 2; enough cells | 0.46 | 5572 |
| C19orf73 | -1.18 | migration z between -2 and 2; enough cells | 0.57 | 5314 |
| NPM1 | 0.18 | migration z between -2 and 2; enough cells | 0.84 | 5588 |
| GPR146 | -0.16 | migration z between -2 and 2; enough cells | 0.78 | 4693 |
| ISL1 | 0.65 | migration z between -2 and 2; enough cells | 0.93 | 5446 |
| ADH5 | 0.5 | migration z between -2 and 2; enough cells | 1.02 | 6391 |
| OR6C65 | 1.34 | migration z between -2 and 2; enough cells | 1.23 | 5061 |
| MRPS15 | 0.17 | migration z between -2 and 2; enough cells | 0.93 | 5775 |
| METTL8 | -0.52 | migration z between -2 and 2; enough cells | 0.7 | 3564 |
| ARC | 1.38 | migration z between -2 and 2; enough cells | 1.24 | 3758 |
| MAP3K5 | 1.17 | migration z between -2 and 2; enough cells | 1.03 | 6095 |
| MS4A6E | -0.06 | migration z between -2 and 2; enough cells | 0.87 | 6121 |
| MAGOHB | 1.71 | migration z between -2 and 2; enough cells | 1.34 | 6445 |

Entries listed so far whose target name starts with M or m:
| gene | migration robust z-score | migration class with cell-count check | migration relative to mock | nuclei per well, duplicate mean |
| --- | --- | --- | --- | --- |
| MRPS15 | 0.17 | migration z between -2 and 2; enough cells | 0.93 | 5775 |
| METTL8 | -0.52 | migration z between -2 and 2; enough cells | 0.7 | 3564 |
| MAP3K5 | 1.17 | migration z between -2 and 2; enough cells | 1.03 | 6095 |
| MS4A6E | -0.06 | migration z between -2 and 2; enough cells | 0.87 | 6121 |
| MAGOHB | 1.71 | migration z between -2 and 2; enough cells | 1.34 | 6445 |
